We go through 37 targets from the supplement of paper PMC12819154, “High-throughput peptide-centric local stability assay extends protein–ligand identification to membrane proteins, tissues and bacteria” (Nature Structural & Molecular Biology, 2025).

By UniProt entry, the sequences of proteins in these tests, tags left out. Where a name states a change or a piece, a line headed by the entry shows the natural chain unless it says otherwise.
UniProt P19404, whole entry: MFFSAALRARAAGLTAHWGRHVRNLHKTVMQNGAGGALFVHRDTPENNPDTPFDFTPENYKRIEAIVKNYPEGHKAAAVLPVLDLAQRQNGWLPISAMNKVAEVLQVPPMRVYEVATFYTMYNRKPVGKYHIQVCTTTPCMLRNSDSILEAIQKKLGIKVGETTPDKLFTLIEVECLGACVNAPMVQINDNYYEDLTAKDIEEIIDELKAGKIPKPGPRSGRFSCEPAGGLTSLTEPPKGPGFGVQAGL
UniProt P24386: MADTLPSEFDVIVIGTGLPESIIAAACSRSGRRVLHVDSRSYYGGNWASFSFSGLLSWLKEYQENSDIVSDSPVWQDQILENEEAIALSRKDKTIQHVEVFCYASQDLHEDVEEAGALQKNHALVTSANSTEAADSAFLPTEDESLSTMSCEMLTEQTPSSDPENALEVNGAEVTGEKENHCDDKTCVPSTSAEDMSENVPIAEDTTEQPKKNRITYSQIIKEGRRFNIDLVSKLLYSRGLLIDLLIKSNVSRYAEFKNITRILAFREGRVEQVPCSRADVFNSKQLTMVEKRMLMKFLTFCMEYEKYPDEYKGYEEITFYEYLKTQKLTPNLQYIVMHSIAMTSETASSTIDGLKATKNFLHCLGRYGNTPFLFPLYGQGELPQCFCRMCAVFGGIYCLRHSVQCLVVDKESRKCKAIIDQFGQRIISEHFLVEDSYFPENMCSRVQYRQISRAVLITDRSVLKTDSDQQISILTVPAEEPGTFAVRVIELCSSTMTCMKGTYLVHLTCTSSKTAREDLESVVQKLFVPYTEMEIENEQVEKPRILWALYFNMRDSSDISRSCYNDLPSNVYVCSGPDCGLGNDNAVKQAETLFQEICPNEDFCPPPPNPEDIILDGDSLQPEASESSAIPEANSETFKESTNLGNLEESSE
UniProt P17812: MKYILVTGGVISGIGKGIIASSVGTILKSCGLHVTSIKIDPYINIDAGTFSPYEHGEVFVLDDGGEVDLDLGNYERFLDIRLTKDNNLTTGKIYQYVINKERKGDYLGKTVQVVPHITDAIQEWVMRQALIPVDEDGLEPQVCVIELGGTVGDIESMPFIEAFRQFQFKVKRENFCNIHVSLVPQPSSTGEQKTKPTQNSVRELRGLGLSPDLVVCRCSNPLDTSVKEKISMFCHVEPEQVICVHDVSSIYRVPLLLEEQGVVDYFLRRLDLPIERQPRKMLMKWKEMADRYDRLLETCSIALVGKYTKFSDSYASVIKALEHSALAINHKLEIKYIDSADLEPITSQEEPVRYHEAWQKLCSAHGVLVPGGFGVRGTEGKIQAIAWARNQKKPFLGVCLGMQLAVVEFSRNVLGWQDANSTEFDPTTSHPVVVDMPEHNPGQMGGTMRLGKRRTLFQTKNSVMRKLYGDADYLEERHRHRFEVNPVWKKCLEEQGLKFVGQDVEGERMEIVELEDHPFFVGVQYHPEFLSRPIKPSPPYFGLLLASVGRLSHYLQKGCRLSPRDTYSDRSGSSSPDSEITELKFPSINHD
UniProt P27348: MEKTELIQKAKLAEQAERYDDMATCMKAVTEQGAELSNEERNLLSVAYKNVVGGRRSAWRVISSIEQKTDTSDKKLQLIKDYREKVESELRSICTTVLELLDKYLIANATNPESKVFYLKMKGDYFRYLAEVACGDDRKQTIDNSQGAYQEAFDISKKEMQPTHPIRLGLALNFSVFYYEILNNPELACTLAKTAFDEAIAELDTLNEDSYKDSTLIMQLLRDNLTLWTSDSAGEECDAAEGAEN
UniProt P15923: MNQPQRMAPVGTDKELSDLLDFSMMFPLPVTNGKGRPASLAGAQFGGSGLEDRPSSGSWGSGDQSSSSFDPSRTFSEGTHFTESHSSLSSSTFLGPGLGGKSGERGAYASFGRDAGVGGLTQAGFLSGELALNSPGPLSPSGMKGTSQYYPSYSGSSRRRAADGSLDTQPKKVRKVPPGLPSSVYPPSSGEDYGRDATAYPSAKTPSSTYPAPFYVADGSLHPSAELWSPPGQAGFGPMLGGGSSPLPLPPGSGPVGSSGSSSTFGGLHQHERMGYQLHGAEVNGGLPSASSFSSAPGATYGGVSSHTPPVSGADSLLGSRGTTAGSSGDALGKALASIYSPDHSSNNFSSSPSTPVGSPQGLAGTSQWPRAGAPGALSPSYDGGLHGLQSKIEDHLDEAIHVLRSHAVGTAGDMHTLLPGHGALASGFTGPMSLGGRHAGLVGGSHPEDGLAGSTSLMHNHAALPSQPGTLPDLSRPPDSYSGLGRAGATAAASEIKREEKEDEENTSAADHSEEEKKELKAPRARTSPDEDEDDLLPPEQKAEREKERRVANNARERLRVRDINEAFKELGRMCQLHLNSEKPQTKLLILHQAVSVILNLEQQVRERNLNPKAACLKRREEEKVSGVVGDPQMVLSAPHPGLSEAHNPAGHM
UniProt P18754: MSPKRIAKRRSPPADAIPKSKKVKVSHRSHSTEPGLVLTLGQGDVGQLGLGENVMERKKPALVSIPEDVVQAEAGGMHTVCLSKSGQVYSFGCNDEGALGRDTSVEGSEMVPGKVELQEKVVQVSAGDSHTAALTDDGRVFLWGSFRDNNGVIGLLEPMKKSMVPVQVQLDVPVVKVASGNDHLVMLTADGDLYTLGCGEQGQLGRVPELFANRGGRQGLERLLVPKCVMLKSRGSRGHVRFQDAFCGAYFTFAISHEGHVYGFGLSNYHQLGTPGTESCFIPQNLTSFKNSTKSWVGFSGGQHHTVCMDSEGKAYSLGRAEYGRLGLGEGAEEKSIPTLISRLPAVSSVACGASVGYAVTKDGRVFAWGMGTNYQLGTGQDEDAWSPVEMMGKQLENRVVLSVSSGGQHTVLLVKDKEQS
UniProt P18054: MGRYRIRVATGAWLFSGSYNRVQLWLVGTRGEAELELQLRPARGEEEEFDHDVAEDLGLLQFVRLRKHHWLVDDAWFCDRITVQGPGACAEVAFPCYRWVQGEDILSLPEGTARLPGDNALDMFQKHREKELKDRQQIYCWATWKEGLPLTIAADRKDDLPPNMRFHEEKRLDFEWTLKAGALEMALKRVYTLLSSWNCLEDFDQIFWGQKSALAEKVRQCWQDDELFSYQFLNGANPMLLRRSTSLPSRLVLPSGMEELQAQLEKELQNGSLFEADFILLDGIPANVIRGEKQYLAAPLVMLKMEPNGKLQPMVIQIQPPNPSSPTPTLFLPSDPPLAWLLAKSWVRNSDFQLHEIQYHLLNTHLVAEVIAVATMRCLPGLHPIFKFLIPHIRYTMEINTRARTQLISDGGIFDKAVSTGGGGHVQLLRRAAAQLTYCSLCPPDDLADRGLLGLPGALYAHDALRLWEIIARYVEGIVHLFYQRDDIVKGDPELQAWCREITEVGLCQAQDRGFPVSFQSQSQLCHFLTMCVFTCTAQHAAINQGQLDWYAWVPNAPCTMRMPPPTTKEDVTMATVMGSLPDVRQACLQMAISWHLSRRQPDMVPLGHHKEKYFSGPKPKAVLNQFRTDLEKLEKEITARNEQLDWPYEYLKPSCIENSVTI
UniProt P21108: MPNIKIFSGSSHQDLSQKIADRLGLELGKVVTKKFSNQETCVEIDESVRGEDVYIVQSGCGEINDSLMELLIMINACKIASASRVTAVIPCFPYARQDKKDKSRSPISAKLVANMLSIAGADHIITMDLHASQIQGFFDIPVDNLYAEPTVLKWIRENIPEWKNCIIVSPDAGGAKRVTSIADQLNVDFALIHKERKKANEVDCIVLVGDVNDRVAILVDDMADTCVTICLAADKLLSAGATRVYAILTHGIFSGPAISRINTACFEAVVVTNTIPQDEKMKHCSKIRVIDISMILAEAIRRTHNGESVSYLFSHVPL
UniProt P27144: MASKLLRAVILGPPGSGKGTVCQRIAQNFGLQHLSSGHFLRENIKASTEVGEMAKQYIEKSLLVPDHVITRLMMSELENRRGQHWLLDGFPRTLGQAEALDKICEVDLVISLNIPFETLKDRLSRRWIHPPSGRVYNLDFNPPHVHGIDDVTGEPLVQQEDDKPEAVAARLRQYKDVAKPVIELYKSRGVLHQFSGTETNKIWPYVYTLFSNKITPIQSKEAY
UniProt P23769: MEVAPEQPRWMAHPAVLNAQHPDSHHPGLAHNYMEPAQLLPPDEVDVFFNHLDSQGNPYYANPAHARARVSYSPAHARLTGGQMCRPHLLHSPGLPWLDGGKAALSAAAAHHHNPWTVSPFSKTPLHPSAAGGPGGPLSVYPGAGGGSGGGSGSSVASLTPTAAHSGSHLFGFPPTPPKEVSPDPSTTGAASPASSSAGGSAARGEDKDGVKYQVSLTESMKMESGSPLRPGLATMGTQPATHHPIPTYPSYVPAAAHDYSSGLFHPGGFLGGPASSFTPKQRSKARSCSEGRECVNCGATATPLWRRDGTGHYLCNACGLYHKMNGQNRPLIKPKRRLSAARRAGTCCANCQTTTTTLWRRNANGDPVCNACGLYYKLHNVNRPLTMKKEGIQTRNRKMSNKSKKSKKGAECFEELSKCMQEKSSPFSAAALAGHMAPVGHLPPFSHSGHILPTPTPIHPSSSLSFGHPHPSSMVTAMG
UniProt P21283, whole entry: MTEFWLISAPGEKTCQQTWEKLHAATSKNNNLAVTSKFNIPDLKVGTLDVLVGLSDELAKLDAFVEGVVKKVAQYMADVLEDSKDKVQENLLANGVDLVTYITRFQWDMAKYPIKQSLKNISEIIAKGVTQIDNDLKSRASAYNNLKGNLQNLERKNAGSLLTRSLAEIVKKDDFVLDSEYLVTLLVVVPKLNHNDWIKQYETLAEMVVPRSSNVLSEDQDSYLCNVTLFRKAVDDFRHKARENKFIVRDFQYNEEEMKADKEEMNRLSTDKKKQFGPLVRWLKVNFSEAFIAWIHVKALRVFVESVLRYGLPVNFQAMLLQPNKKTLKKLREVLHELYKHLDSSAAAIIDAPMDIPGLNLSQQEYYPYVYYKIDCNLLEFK
UniProt P28066: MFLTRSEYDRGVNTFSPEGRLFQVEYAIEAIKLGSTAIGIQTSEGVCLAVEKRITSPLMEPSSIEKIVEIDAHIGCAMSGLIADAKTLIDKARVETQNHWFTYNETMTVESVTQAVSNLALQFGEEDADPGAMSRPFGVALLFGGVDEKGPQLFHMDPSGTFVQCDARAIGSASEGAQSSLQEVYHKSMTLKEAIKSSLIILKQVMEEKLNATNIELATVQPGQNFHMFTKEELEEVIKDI
UniProt P23368: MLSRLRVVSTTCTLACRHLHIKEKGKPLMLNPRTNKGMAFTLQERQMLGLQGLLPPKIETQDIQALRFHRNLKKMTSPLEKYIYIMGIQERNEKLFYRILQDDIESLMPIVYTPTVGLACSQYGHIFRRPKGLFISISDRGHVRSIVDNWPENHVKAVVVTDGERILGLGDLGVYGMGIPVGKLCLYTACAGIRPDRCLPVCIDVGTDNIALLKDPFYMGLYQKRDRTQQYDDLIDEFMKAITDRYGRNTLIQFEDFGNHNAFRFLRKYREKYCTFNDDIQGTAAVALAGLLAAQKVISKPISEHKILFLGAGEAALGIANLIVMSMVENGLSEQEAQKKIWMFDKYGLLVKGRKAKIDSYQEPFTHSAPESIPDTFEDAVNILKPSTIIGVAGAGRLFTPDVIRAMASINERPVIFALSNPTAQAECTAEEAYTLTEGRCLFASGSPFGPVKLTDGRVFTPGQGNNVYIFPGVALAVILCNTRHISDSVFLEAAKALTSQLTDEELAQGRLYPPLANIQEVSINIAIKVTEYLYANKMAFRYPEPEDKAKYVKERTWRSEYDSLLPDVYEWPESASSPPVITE
UniProt P16930: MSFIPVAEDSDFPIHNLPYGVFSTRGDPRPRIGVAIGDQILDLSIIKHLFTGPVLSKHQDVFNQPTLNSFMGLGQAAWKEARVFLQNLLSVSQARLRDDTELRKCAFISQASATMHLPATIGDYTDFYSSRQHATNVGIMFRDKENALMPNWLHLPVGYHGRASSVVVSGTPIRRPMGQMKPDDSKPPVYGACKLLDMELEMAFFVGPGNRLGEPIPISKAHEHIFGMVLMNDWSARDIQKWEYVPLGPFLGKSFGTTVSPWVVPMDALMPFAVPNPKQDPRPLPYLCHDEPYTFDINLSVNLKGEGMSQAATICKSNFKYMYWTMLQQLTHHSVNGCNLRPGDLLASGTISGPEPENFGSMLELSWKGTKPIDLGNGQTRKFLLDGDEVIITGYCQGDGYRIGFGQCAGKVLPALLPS
UniProt P23511, whole entry: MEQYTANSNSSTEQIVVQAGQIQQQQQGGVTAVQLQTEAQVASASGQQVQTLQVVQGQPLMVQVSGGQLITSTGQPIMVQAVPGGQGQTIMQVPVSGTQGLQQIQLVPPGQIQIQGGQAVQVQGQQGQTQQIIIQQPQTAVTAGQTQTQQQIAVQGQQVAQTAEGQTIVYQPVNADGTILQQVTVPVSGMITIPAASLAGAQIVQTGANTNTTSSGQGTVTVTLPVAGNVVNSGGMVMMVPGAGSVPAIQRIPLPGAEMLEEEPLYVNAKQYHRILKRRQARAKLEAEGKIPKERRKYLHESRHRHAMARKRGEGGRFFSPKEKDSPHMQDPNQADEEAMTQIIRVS

This is one part of the list. Most entries show no effect beyond the scatter of the controls.

Compound in the assay: Cc1nc(Nc2ncc(C(=O)Nc3c(C)cccc3Cl)s2)cc(N2CCN(CCO)CC2)n1 [dasatinib]
Kind of assay: log2 fold change of tryptic peptide abundance, ligand vs vehicle (limited proteolysis) (log2 ratio); higher = more trypsin-susceptible (destabilized). Conditions: ligand concentration: 5 uM; sample: K562 cleared lysate.
As for “RHOQ (peptide sequence: CVVVGDGAVGK, peptide start residue: 6) (UniProt P17081)”, the log2 fold change is -0.246.

“NDUFV2 (peptide sequence: VAEVLQVPPMR, peptide start residue: 101) (UniProt P19404)”: the log2 fold change was 0.203.

Take “NAT1 (peptide sequence: SFCSLQTPDGVHCLVGFTLTHR, peptide start residue: 221) (UniProt P18440)”: the log2 fold change turned out to be 0.527.

In the case of “UniProt P17024 (peptide sequence: SHTGEKPYECKQCGK, peptide start residue: 216)”, the log2 fold change is -0.775.

On to “IRF2 (peptide sequence: KIFQIPWMHAAR, peptide start residue: 32) (UniProt P14316)”, for which the log2 fold change is -0.838.

Turning to “CHM (peptide sequence: RFNIDLVSK, peptide start residue: 228) (UniProt P24386)”, the log2 fold change is -0.347.

Turning to “UniProt P17097 (peptide sequence: ASDSPSLVAHQR, peptide start residue: 394)”, the log2 fold change was determined as 0.0623.

For the target “RPL17 (peptide sequence: GLDVDSLVIEHIQVNK, peptide start residue: 106) (UniProt P18621)”, the log2 fold change came out at 0.0746.

Regarding “UniProt P17812 (peptide sequence: YHEAWQK, peptide start residue: 354)”, the log2 fold change came to 0.125.

Regarding “YWHAQ (peptide sequence: YLAEVACGDDR, peptide start residue: 128) (UniProt P27348)”, the log2 fold change amounted to 0.0724.

With “NEB (peptide sequence: AGVAASK, peptide start residue: 339) (UniProt P20929)”, the log2 fold change was determined as 0.254.

For “UniProt P16383 (peptide sequence: AQVAGLPHR, peptide start residue: 52)”, the log2 fold change was -0.188.

For “TCF3 (peptide sequence: VRDINEAFKELGR, peptide start residue: 590) (UniProt P15923)”, the log2 fold change stood at 0.712.

For the target “UniProt P24928 (peptide sequence: FGVEQPEGDEDLTKEKGHGGCGR, peptide start residue: 164)”, the log2 fold change is -0.96.

On to “RAB4A (peptide sequence: MGSGIQYGDAALR, peptide start residue: 188) (UniProt P20338)”, for which the log2 fold change was found to be 0.0457.

For “RCC1 (peptide sequence: SPPADAIPK, peptide start residue: 11) (UniProt P18754)”, the log2 fold change was -0.352.

In the case of “RPL35A (peptide sequence: SGRLWSKAIFAGYK, peptide start residue: 2) (UniProt P18077)”, the log2 fold change is -0.266.

In the case of “UniProt P18054 (peptide sequence: TDLEKLEK, peptide start residue: 629)”, the log2 fold change was determined as 0.145.

In the case of “CAD (peptide sequence: FLSSAAAVSKEHPVVISK, peptide start residue: 1110) (UniProt P27708)”, the log2 fold change was -0.402.

Consider “VARS (peptide sequence: TLLSVPGYKEK, peptide start residue: 499) (UniProt P26640)”, for which the log2 fold change is 0.597.

In the case of “UniProt P21108 (peptide sequence: IFSGSSHQDLSQK, peptide start residue: 6)”, the log2 fold change stood at 0.0447.

Consider “RPL10 (peptide sequence: EHVIEALRR, peptide start residue: 146) (UniProt P27635)”, for which the log2 fold change is -0.421.

Turning to “UniProt P25398 (peptide sequence: LVEALCAEHQINLIKVDDNKK, peptide start residue: 64)”, the log2 fold change is -0.0963.

With “UniProt P18615 (peptide sequence: KQSSSSTTSQGGVK, peptide start residue: 34)”, the log2 fold change was -0.745.

Take “PLCG2 (peptide sequence: QKPVDLLK, peptide start residue: 969) (UniProt P16885)”: the log2 fold change was -0.62.

Take “AK4 (peptide sequence: DVAKPVIELYK, peptide start residue: 176) (UniProt P27144)”: the log2 fold change is -0.103.

For “GATA2 (peptide sequence: VSYSPAHAR, peptide start residue: 70) (UniProt P23769)”, the log2 fold change was determined as 0.0171.

For “ARNT (peptide sequence: SDDEQSSADKER, peptide start residue: 77) (UniProt P27540)”, the log2 fold change turned out to be 0.257.

Consider “ATP6V1C1 (peptide sequence: DFQYNEEEMKADKEEMNR, peptide start residue: 250) (UniProt P21283)”, for which the log2 fold change stood at 0.13.

On to “UniProt P28066 (peptide sequence: EAIKSSLIILK, peptide start residue: 193)”, for which the log2 fold change stood at 0.759.

“HSP90B1 (peptide sequence: IADDKYNDTFWKEFGTNIK, peptide start residue: 475) (UniProt P14625)”: the log2 fold change was 0.364.

In the case of “ACP1 (peptide sequence: KLVTDQNISENWR, peptide start residue: 29) (UniProt P24666)”, the log2 fold change is 0.0499.

“ME2 (peptide sequence: LCLYTACAGIRPDR, peptide start residue: 184) (UniProt P23368)”: the log2 fold change was -0.646.

With “PPP3CB (peptide sequence: AAPPPPPPPPPPPGADRVVK, peptide start residue: 9) (UniProt P16298)”, the log2 fold change was -0.173.

Turning to “FAH (peptide sequence: LGEPIPISK, peptide start residue: 212) (UniProt P16930)”, the log2 fold change turned out to be 0.294.

In the case of “ZNF16 (peptide sequence: TFSQSSTLIQHQR, peptide start residue: 553) (UniProt P17020)”, the log2 fold change was -0.217.

In the case of “NFYA (peptide sequence: KYLHESR, peptide start residue: 297) (UniProt P23511)”, the log2 fold change was -0.229.
